Measurements reported in patent publication US20250084173A1 (4B TECHNOLOGIES SUZHOU, published 2025).
Results are given in words; binding and its absence hold for the method and conditions named.

How the values were obtained:
[1] = target: recombinant P75^NTR protein; experiment: ELISA on recombinant protein (FIG. 1a)
recombinant TrkB protein = experiment: ELISA for cross-reactivity on recombinant P75^NTR, TrkA, TrkB and TrkC (FIG. 1a)
recombinant TrkC protein = experiment: as above

Measured: binding

B1: 27A6 (antibody, mouse IgG1, V domains shown)
VH: QVQLQQSGAELMEPGASVKISCKATGYTFSRYWIEWVQQRPGHGLEWIGEILPGSGTTNYNENFRGKATFTADTSSNTVYMQLISLTSEDSAVYYCARSYYGDFDAYWGQGTLVTVSA
VL: QAVVTQESALTTSPGETVTLTCRSSIGAVTTSNHANWVQEKPDHLFTGLIGGTNNRAPGVPARFSGSLIGDKAVLTITGAQTEDEAIYFCALWYSNHWVFGGGTKLTVLG
notes: also called TrkA antibody; TrkA antibody of the present application
no binding: all assays above
